# For at least one compound, name, drawing or mass did not settle the structure.
# Legend:
# [1] = test system: c-myc; experiment: Northern Blot and Western Blot of c-myc in keratinocytes and tissue; format: cell-based, human
# Description: Keratinocytes were grown to 80% confluency, switched to the basal media for 24 hours, and incubated with 1 mM dexamethasone (Sigma) for 24 and 48 hours. Cells were harvested by trypsinization and cytoplasmic and nuclear fractions were obtained using Nuclear Extract Kit (Active Motif, Carlsbad, Calif.) following commercial protocol. 15 μg of each fraction was separated on a 10% SDS-PAGE gel. The proteins were then transferred to a nitrocellulose membrane (Protran®, Bioscience, Dassel, Germany) using the semi-dry transfer system (BioRad, Hercules, Calif.). Ponceau S was used to check the efficiency of the transfer. […] The membrane was washed 3 times for 5 minutes in TTBS and then incubated at 4° C. overnight with GR antibody (1:500) (Affinity Bioreagents) followed with horseradish […] (HRP) conjugated to anti-rabbit secondary antibody (1:1000) (Santa Cruz Biotech, Santa Cruz, Calif.). Immune complexes were visualized using Super Signal West Pico Chemiluminescent substrate (Pierce, Rockford, Ill.). Immunoblot was exposed on x-ray film (HyBlot CL, Denville, N.J.) according to manufacturer's instruction.
# It was also found by Northern Blot analysis using acute wound tissue that c-myc was induced at 96 hours post-wounding (FIG. 11(B)).
# Using Western Blot analysis, it was shown that protein levels of c-myc were induced by exogenous glucocorticoid and blocked by metyrapone (FIG. 11(C)).
# [2] = test system: β-catenin; experiment: Immunohistochemistry of phosphorylated β-catenin in chronic wound biopsies (diabetic foot ulcers); set-up: species or system human; details: added to metyrapone treated chronic wound biopsies
# Description: Chronic wound tissue was obtained from discarded tissue of biopsies of consenting patients having surgical debridement using approved Columbia University protocol.
# Slides were counterstained with hematoxylin. […] Sections were analyzed using a Carl Zeiss microscope. Digital images were taken with Adobe TWAIN—32 program.
# It has been previously reported that β-catenin and c-myc participate in inhibition of wound healing and contribute to the impairment of healing in chronic wounds. […] To test if endogenous glucocorticoid participates in β-catenin activation in patients with chronic wounds, metyrapone was topically applied to chronic wound biopsies from patients with diabetic foot ulcers (as described in Example 1(A)). The effects were evaluated by measuring phosphorylation and intracellular translocation of β-catenin by immunohistochemistry as described in Example 1(B), except using an antibody targeting phosphorylated (activated) form of β-catenin (Cell Signaling Technology, Danvers, Mass.). […] As also shown in FIG. 12, this effect can be reversed by the addition of an exogenous glucocorticoid.
compound,measurement,setting,value
"C[C@@H]1C[C@H]2[C@@H]3CCC4=CC(=O)C=C[C@]4(C)[C@@]3(F)[C@@H](O)C[C@]2(C)[C@@]1(O)C(=O)CO [glucocorticoid, dexamethasone]",protein levels of c-myc (Western Blot),[1],induced
same,c-myc mRNA (Northern Blot),[1]; glucocorticoid treated keratinocytes,induced
same,effect of adding exogenous glucocorticoid on the metyrapone effect on β-catenin,[2],reversed
